Measurements taken from paper PMC7054785.
These are yes or no findings as the source states them, for the method shown. Binding seen in cells or lysates may run through a third protein. Some entries that bind do so weakly or less than the wild type.

Biological target: Bcl-2 (human (endogenous in A549)), P10415
Assay: co-IP; immunoprecipitation from A549 cells exposed to LPS; precipitating antibody and conditions not stated
Details: remark: other sources report otherwise

B1: Bad, Q92934 1-168 (protein)
chain: MFQIPEFEPSEQEDSSSAERGLGPSPAGDGPSGSGKHHRQAPGLLWDASHQQEQPTSSSHHGGAGAVEIRSRHSSYPAGTEDDEGMGEEPSPFRGRSRSAPPNLWAAQRYGRELRRMSDEFVDSFKKGLPRPKSAGTATQMRQSSSWTRVFQSWWDRNLGRGSSAPSQ
For B1, the binding was “binds”.
